Some of these results come from one statement about several compounds together.
System: E. necator
Assay: SIGS, E. necator spore production on V. vinifera (whole plant and leaf disc assays)
Format: in vivo, Erysiphe necator
Settings: E. necator-grapevine system
Description: Spore suspension concentrations were normalized to the input tissue weight (g) before being normalized to the control.
Spore suspension concentrations were normalized to the input tissue weight (g) before being normalized to the control. CYP51 is included as a positive control gene required for growth. Error bars±SEM. *p<0.05 by Student's T-Test (unpaired, 2-tailed) compared to control.
With SIGS methods optimized and gene targets identified, we sought to translate these methods and targets to grape powdery mildew (FIG. 2). New long dsRNAs were designed for each target tested as there is significant sequence divergence between G. orontii MGH1 and E. necator c. First, procedures were optimized for the grapevine system by silencing CYP51. Spore production was reduced by 62% and 45% in grapevine whole plant and leaf disc assays, respectively when treated with long dsRNA against the same region of CYP51 as dsRNA-1 against G. orontii MGH1 CYP51 (FIG. 2; FIG. 7, panel a). […] We tested SIGS against the effective targets including AATF in the grapevine system, as we were interested in ascertaining whether they would show a statistically significant difference in grape powdery mildew spore production. […] The average reduction of powdery mildew spore production for SIGS against CYP51 and AATF was greater in E. necator compared to G. orontii (FIG. 4 and FIG. 7). […]

B1: E. necator BCDO dsRNA: dsRNA against E. necator BCDO (target SEQ ID NO:203) (nucleic acid)
chain: ACAGCCTATGAAAAGGATCAGTGTGGCGAATACTAATATTTTATATCACGACGGACGAGCTCTTGCAACTTGTGAAAGTGGCCCACCATTGCGAGTTTTACTTCCTCGTCTAGAGACAGTTGGATGGTTTGATGGTTACAAAGTGGAAGGGGAACCGGCAACAGAAACCAAAGTTGGTGAACCCTTCGGCGTTAGTGTGGGAAACTTCAACATATTGACGGAACGAATAACCGCGCACCCTCGAGAAGATCCAATCACAAAAGAGCTCATTCTTTTCCACTCAACGT
modifications: misc_feature 1..287: note = Inhibitory double stranded RNA; listed as RNA
reduction in powdery mildew growth and reproduction: > 50%

B2: EnAPG9: dsRNA against E. necator Autophagy protein Apg9 (target SEQ ID NO:208) (nucleic acid, listed as Golovinomyces orontii)
chain: ATGCCGTCTATCCCCATCACTATCATTACTGGCTTTCTAGGGTCTGGTAAAACAACTCTCCTTCTCAATATTCTTCCTCAAATACTTGCCAAGAATCCGAAATATAAATTAGCGCTTCTCAAAAATGAATTTGGAGATTTGGCTGTCGATAGTCAACTTGCAGGCTCTTCTATCACTGGTGTTCGTGAGATTCTAAATGGCTGCATTTGCTGTAACCTCGTCGGCTCTCTCTCATCGGCCCTTGAGGAGCTCACAGAGAGTATTTCTCCCGACCGAATAGTGATTGAAACGTCTGGGTCAGCATTCCCTGCAACGCTAGCTATGGAGGTTAATCGACTAGCGCGGGAGACCCAGGGTAAATATGTTCTAGATGGTGTAGTGACTGTTATTGATGTCGAAAACTGGAAGGGATATGAAGATACTAGCTTTACCGCACGATTACAAGCTCGTTACACAGATCTTGTTGTTTTTAATAAGTGGGAGGATGTTGGTGAAAGGAGGTGGGACGAATGTTTAGATCGACTGGGTGATATGGAGGTTGAAATTCCATGGGTTAAGAGTCAGAGGGGATTTGTTGATATGGATATTATCTTTGGCCTTGATGGAGGACTAGCAAAAGAATTAGAGGGAGAAGTAGAGCAAGGCCTACATCAGCAAAAAAAAACGCACAAGGACGGCGAAAGTCACCAGAACGAGGTTGAGGTACTTTCTGTCACCCTTTCTAAAAAATCTGATATCTCCTCGACCATTACACGTCCGAATTCAGAGCTTACCCCAAAAATTGATACTGATGCTCTGCTGAAACTTCTCCAAACAGCACCCAAGGACGAGGTCTACCGGATAAAGTCAATCTTTACTTCTTCTACACCTATGCCTTCATCTACTCCTATATCATCTTCAGATCTATCAGAAACGCCAGTGTCTTCAGTTGCTGGCCCAAATAAATACATTCTAAATTGGTCATTTGGTCGCTGGACCTGCACACCTATGCCCTCCACTAATTCTTCAACCACAGGAGACAGCTTTGAGCACCCATCTAGCGAGGCCGTAGGTCAAGGAGAAGTTTTCCTTCGCATGATTATAATTCTCTCAAGAGGTGCTGGTAAGAAATGGAAAAAAAGACTTGAGGATGGAGGTTTTATACGTTTCAAGGGTGTGGCCGGAACCGACGTACAGAATTTAAATGTTGTTCCCATCAGTTAA
modifications: listed as DNA
reduction in powdery mildew growth and reproduction: > 50%

— US20260117244A1, “INHIBITORY RNA FOR THE CONTROL OF PHYTOPATHOGENS” (priority 2021, published 2026)
